Results as given in paper PMC10577452.
Results are given in words; binding and its absence hold for the method and conditions named. In cells and extracts the contact can be indirect. Some binding calls cover weakened binding; strength is not graded here. Tags and fused reporters may be left off the sequences shown.

Sequences of proteins named here, by UniProt entry; tags and fusion partners are left off. Residues count along the entry.
UniProt P78504, residues 34-1218: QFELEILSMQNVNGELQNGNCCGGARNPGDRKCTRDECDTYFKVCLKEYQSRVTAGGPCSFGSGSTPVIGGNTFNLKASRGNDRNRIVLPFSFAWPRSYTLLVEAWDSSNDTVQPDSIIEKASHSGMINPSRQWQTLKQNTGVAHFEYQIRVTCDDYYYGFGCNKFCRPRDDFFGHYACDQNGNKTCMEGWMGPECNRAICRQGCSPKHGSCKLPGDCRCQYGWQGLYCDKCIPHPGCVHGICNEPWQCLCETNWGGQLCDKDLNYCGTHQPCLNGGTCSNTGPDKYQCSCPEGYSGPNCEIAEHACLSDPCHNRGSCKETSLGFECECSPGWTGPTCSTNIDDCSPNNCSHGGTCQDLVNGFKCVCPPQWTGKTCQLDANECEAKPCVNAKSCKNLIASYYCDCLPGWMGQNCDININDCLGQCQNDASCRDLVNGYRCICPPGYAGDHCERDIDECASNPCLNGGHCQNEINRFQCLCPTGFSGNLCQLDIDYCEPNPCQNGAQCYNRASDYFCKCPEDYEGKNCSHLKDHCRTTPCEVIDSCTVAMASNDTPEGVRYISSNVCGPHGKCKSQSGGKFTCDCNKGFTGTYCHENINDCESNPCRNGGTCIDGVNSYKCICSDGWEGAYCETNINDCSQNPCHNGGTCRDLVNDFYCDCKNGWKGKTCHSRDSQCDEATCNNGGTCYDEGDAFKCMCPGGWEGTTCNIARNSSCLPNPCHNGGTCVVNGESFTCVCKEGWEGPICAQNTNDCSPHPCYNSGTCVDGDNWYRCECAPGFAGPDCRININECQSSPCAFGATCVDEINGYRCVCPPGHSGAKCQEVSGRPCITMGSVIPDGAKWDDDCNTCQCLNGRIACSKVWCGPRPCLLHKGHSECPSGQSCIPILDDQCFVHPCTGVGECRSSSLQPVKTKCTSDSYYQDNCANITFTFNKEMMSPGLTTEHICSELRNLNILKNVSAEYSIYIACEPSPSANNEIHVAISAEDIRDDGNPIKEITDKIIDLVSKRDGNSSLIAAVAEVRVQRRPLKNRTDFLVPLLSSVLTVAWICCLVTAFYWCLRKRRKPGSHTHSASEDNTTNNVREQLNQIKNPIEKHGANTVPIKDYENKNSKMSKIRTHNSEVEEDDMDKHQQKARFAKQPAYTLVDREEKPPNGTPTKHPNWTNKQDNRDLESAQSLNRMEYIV

How the values were obtained:
[1] = biological target: T1, Flag-Neuralized (neuralized-like 1, Neurl1) (UniProt O76050); assay: co-IP; HEK293 cells transfected with HA-Jagged1 and Flag-Neuralized, proteins collected 12, 24, 36 and 48 h after transfection; lysate precipitated with primary antibody and agarose beads, western blot; precipitating antibody not stated
T1 sequence: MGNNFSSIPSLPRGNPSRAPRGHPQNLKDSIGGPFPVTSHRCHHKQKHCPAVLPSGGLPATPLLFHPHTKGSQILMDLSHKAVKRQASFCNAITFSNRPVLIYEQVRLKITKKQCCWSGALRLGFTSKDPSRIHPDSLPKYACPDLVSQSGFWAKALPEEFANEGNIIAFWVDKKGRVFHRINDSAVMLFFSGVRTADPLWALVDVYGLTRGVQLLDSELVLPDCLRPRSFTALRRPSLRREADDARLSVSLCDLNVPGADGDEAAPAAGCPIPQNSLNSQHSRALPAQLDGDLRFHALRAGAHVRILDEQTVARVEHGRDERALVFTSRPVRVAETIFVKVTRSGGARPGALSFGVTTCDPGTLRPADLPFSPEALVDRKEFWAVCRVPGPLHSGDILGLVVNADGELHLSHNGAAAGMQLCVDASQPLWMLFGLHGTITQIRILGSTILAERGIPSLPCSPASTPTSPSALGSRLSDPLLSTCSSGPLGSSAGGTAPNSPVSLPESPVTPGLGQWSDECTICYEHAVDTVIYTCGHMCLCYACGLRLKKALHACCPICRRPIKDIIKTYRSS

[2] = biological target: T1, Flag-Neuralized (neuralized-like 1, Neurl1); assay: co-IP; HEK293 cells transfected with 600 ng HA-Jagged1, 400 ng Flag-Neuralized and 0, 40 or 80 ng pcDNA3.1-Neuritin for 24 h; IP and western blot for Jagged1

binding [1]: binds
binding [2]: binds
Substance: HA-Jagged1 (from UniProt P78504 34-1218) (ligand)
